Data from the supplement of paper PMC8728848.
Some of the results follow.

Legend:
Assay in all cases: glycan array binding signal (z-score within array); higher = stronger binding
Conditions in all cases: glycan notation: IUPAC condensed, linker removed
[1] = biological target: Neu5Ac(a2-3)Gal(b1-4)GlcNAc(b1-3)GalNAc
Summary of the method: (§1)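 From the Consortium for Functional Glycomics database, 3228 arrays were curated, keeping only those whose protein sequence was available. Binding is given as a within-array Z-score averaged across arrays sharing a protein sequence and across linkers. Negative Z-scores can be read as non-binding.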

[2] = biological target: Neu5Ac(a2-3)Gal(b1-4)GlcNAc(b1-6)[Gal(b1-3)]GalNAc
Summary of the method: as §1

[3] = biological target: Neu5Ac(a2-3)Gal(b1-4)GlcNAc(b1-6)[Neu5Ac(a2-3)Gal(b1-3)]GalNAc
Summary of the method: as §1

[4] = biological target: Neu5Ac(a2-3)Gal(b1-4)GlcNAc6S
Summary of the method: as §1

[5] = biological target: Neu5Ac(a2-3)Gal(b1-4)[Fuc(a1-3)]GlcNAc
Summary of the method: as §1

[6] = biological target: Neu5Ac(a2-3)Gal(b1-4)[Fuc(a1-3)]GlcNAc(b1-3)Gal
Summary of the method: as §1

[7] = biological target: Neu5Ac(a2-3)Gal(b1-4)[Fuc(a1-3)]GlcNAc(b1-3)Gal(b1-4)GlcNAc
Summary of the method: as §1

[8] = biological target: Neu5Ac(a2-3)Gal(b1-4)[Fuc(a1-3)]GlcNAc(b1-3)Gal(b1-4)[Fuc(a1-3)]GlcNAc(b1-3)Gal(b1-4)[Fuc(a1-3)]GlcNAc
Summary of the method: as §1

[9] = biological target: Neu5Ac(a2-3)Gal(b1-4)[Fuc(a1-3)]GlcNAc(b1-3)GalNAc
Summary of the method: as §1

[10] = biological target: Neu5Ac(a2-3)Gal(b1-4)[Fuc(a1-3)]GlcNAc(b1-6)[Gal(b1-3)]GalNAc
Summary of the method: as §1

[11] = biological target: Neu5Ac(a2-3)Gal(b1-4)[Fuc(a1-3)]GlcNAc6S
Summary of the method: as §1

[12] = biological target: Neu5Ac(a2-3)Gal6S(b1-4)GlcNAc
Summary of the method: as §1

[13] = biological target: Neu5Ac(a2-3)Gal6S(b1-4)[Fuc(a1-3)]GlcNAc
Summary of the method: as §1

[14] = biological target: Neu5Ac(a2-3)GalNAc
Summary of the method: as §1

[15] = biological target: Neu5Ac(a2-3)GalNAc(b1-4)GlcNAc
Summary of the method: as §1

[16] = biological target: Neu5Ac(a2-3)[GalNAc(b1-4)]Gal(b1-4)Glc
Summary of the method: as §1

[17] = biological target: Neu5Ac(a2-3)[GalNAc(b1-4)]Gal(b1-4)GlcNAc
Summary of the method: as §1

[18] = biological target: Neu5Ac(a2-3)[GalNAc(b1-4)]Gal(b1-4)GlcNAc(b1-3)GalNAc
Summary of the method: as §1

[19] = biological target: Neu5Ac(a2-3)[Neu5Ac(a2-6)]GalNAc
Summary of the method: as §1

[20] = biological target: Neu5Ac(a2-6)Gal
Summary of the method: as §1

[21] = biological target: Neu5Ac(a2-6)Gal(b1-3)GlcNAc(b1-3)[Gal(b1-4)GlcNAc(b1-6)]Gal(b1-4)Glc
Summary of the method: as §1

[22] = biological target: Neu5Ac(a2-6)Gal(b1-4)Glc
Summary of the method: as §1

[23] = biological target: Neu5Ac(a2-6)Gal(b1-4)GlcNAc
Summary of the method: as §1

[24] = biological target: Neu5Ac(a2-6)Gal(b1-4)GlcNAc(b1-2)Man(a1-3)Man(b1-4)GlcNAc(b1-4)GlcNAc
Summary of the method: as §1

[25] = biological target: Neu5Ac(a2-6)Gal(b1-4)GlcNAc(b1-2)Man(a1-3)[Gal(b1-4)GlcNAc(b1-2)Man(a1-6)]Man(b1-4)GlcNAc(b1-4)GlcNAc
Summary of the method: as §1

[26] = biological target: Neu5Ac(a2-6)Gal(b1-4)GlcNAc(b1-2)Man(a1-3)[GlcNAc(b1-2)Man(a1-6)]Man(b1-4)GlcNAc(b1-4)GlcNAc
Summary of the method: as §1

[27] = biological target: Neu5Ac(a2-6)Gal(b1-4)GlcNAc(b1-2)Man(a1-3)[GlcNAc(b1-2)Man(b1-4)GlcNAc(b1-2)Man(a1-6)]Man(b1-4)GlcNAc(b1-4)GlcNAc
Summary of the method: as §1

[28] = biological target: Neu5Ac(a2-6)Gal(b1-4)GlcNAc(b1-2)Man(a1-3)[Man(a1-6)]Man(b1-4)GlcNAc(b1-4)GlcNAc
Summary of the method: as §1

[29] = biological target: Neu5Ac(a2-6)Gal(b1-4)GlcNAc(b1-2)Man(a1-3)[Neu5Ac(a2-6)Gal(b1-4)GlcNAc(b1-2)Man(a1-6)]Man(b1-4)GlcNAc(b1-4)GlcNAc
Summary of the method: as §1

[30] = biological target: Neu5Ac(a2-6)Gal(b1-4)GlcNAc(b1-2)Man(a1-6)Man(b1-4)GlcNAc(b1-4)GlcNAc
Summary of the method: as §1

[31] = biological target: Neu5Ac(a2-6)Gal(b1-4)GlcNAc(b1-2)Man(a1-6)[Gal(b1-4)GlcNAc(b1-2)Man(a1-3)]Man(b1-4)GlcNAc(b1-4)GlcNAc
Summary of the method: as §1

[32] = biological target: Neu5Ac(a2-6)Gal(b1-4)GlcNAc(b1-2)Man(a1-6)[GlcNAc(b1-2)Man(a1-3)]Man(b1-4)GlcNAc(b1-4)GlcNAc
Summary of the method: as §1

[33] = biological target: Neu5Ac(a2-6)Gal(b1-4)GlcNAc(b1-2)Man(a1-6)[Man(a1-3)]Man(b1-4)GlcNAc(b1-4)GlcNAc
Summary of the method: as §1

[34] = biological target: Neu5Ac(a2-6)Gal(b1-4)GlcNAc(b1-3)Gal(b1-3)GlcNAc
Summary of the method: as §1

[35] = biological target: Neu5Ac(a2-6)Gal(b1-4)GlcNAc(b1-3)Gal(b1-4)GlcNAc
Summary of the method: as §1

[36] = biological target: Neu5Ac(a2-6)Gal(b1-4)GlcNAc(b1-3)Gal(b1-4)GlcNAc(b1-3)Gal(b1-4)GlcNAc
Summary of the method: as §1

[37] = biological target: Neu5Ac(a2-6)Gal(b1-4)GlcNAc(b1-3)Gal(b1-4)[Fuc(a1-3)]GlcNAc(b1-3)Gal(b1-4)[Fuc(a1-3)]GlcNAc
Summary of the method: as §1

[38] = biological target: Neu5Ac(a2-6)Gal(b1-4)GlcNAc(b1-3)GalNAc
Summary of the method: as §1

[39] = biological target: Neu5Ac(a2-6)Gal(b1-4)GlcNAc6S
Summary of the method: as §1

[40] = biological target: Neu5Ac(a2-6)GalNAc
Summary of the method: as §1

[41] = biological target: Neu5Ac(a2-6)GalNAc(b1-4)GlcNAc
Summary of the method: as §1

[42] = biological target: Neu5Ac(a2-6)GlcNAc(b1-4)GlcNAc
Summary of the method: as §1

[43] = biological target: Neu5Ac(a2-6)GlcNAc(b1-4)GlcNAc(b1-4)GlcNAc
Summary of the method: as §1

[44] = biological target: Neu5Ac(a2-8)Neu5Ac
Summary of the method: as §1

[45] = biological target: Neu5Ac(a2-8)Neu5Ac(a2-3)Gal(b1-3)GalNAc(b1-4)[Neu5Ac(a2-8)Neu5Ac(a2-3)]Gal(b1-4)Glc
Summary of the method: as §1

[46] = biological target: Neu5Ac(a2-8)Neu5Ac(a2-3)Gal(b1-4)Glc
Summary of the method: as §1

[47] = biological target: Neu5Ac(a2-8)Neu5Ac(a2-3)[Gal(b1-3)GalNAc(b1-4)]Gal(b1-4)Glc
Summary of the method: as §1

[48] = biological target: Neu5Ac(a2-8)Neu5Ac(a2-3)[GalNAc(b1-4)]Gal(b1-4)Glc
Summary of the method: as §1

[49] = biological target: Neu5Ac(a2-8)Neu5Ac(a2-8)Neu5Ac
Summary of the method: as §1

[50] = biological target: Neu5Ac(a2-8)Neu5Ac(a2-8)Neu5Ac(a2-3)Gal(b1-4)Glc
Summary of the method: as §1

[51] = biological target: Neu5Ac(a2-8)Neu5Ac(a2-8)Neu5Ac(a2-3)[GalNAc(b1-4)]Gal(b1-4)Glc
Summary of the method: as §1

[52] = biological target: Neu5Ac(a2-8)Neu5Ac(a2-8)Neu5Ac(a2-8)Neu5Ac(a2-3)[GalNAc(b1-4)]Gal(b1-4)Glc
Summary of the method: as §1

[53] = biological target: Neu5Ac(b2-6)Gal(b1-4)GlcNAc
Summary of the method: as §1

[54] = biological target: Neu5Ac(b2-6)GalNAc
Summary of the method: as §1

[55] = biological target: Neu5Ac9Ac(a2-3)Gal(b1-3)GlcNAc
Summary of the method: as §1

[56] = biological target: Neu5Ac9Ac(a2-3)Gal(b1-4)GlcNAc
Summary of the method: as §1

[57] = biological target: Neu5Ac9Ac(a2-6)Gal(b1-4)GlcNAc
Summary of the method: as §1

[58] = biological target: Neu5Gc(a2-3)Gal(b1-3)GlcNAc
Summary of the method: as §1

[59] = biological target: Neu5Gc(a2-3)Gal(b1-3)[Fuc(a1-4)]GlcNAc
Summary of the method: as §1

[60] = biological target: Neu5Gc(a2-3)Gal(b1-4)Glc
Summary of the method: as §1

[61] = biological target: Neu5Gc(a2-3)Gal(b1-4)GlcNAc
Summary of the method: as §1

[62] = biological target: Neu5Gc(a2-3)Gal(b1-4)[Fuc(a1-3)]GlcNAc
Summary of the method: as §1

[63] = biological target: Neu5Gc(a2-6)Gal(b1-4)GlcNAc
Summary of the method: as §1

[64] = biological target: Neu5Gc(a2-6)GalNAc
Summary of the method: as §1

[65] = biological target: Neu5Gc(b2-6)Gal(b1-4)GlcNAc
Summary of the method: as §1

B1: DCL-1 (Homo sapiens), Q8IX05 (protein)
chain: MLRAALPALLLPLLGLAAAAVADCPSSTWIQFQDSCYIFLQEAIKVESIEDVRNQCTDHGADMISIHNEEENAFILDTLKKQWKGPDDILLGMFYDTDDASFKWFDNSNMTFDKWTDQDDDEDLVDTCAFLHIKTGEWKKGNCEVSSVEGTLCKTAIPYKRKYLSDNHILISALVIASTVILTVLGAIIWFLYKKHSDSRFTTVFSTAPQSPYNEDCVLVVGEENEYPVQFD
glycan array binding signal (z-score) [1]: -1
glycan array binding signal (z-score) [2]: -0.762
glycan array binding signal (z-score) [3]: 0.223
glycan array binding signal (z-score) [4]: 0.043
glycan array binding signal (z-score) [5]: 0.27
glycan array binding signal (z-score) [6]: 0.066
glycan array binding signal (z-score) [7]: -0.487
glycan array binding signal (z-score) [8]: -0.198
glycan array binding signal (z-score) [9]: 5.12
glycan array binding signal (z-score) [10]: 0.161
glycan array binding signal (z-score) [11]: 0.133
glycan array binding signal (z-score) [12]: 0.451
glycan array binding signal (z-score) [13]: -0.162
glycan array binding signal (z-score) [14]: 0.625
glycan array binding signal (z-score) [15]: -0.719
glycan array binding signal (z-score) [16]: 0.636
glycan array binding signal (z-score) [17]: 0.206
glycan array binding signal (z-score) [18]: 1.11
glycan array binding signal (z-score) [19]: -1.09
glycan array binding signal (z-score) [20]: -0.424
glycan array binding signal (z-score) [21]: -0.428
glycan array binding signal (z-score) [22]: -0.195
glycan array binding signal (z-score) [23]: -0.393
glycan array binding signal (z-score) [24]: -0.43
glycan array binding signal (z-score) [25]: 0.469
glycan array binding signal (z-score) [26]: -0.141
glycan array binding signal (z-score) [27]: -0.488
glycan array binding signal (z-score) [28]: -0.581
glycan array binding signal (z-score) [29]: 0.079
glycan array binding signal (z-score) [30]: 1.18
glycan array binding signal (z-score) [31]: -0.452
glycan array binding signal (z-score) [32]: 1.51
glycan array binding signal (z-score) [33]: -0.331
glycan array binding signal (z-score) [34]: -0.507
glycan array binding signal (z-score) [35]: 1.53
glycan array binding signal (z-score) [36]: -1.67
glycan array binding signal (z-score) [37]: -0.365
glycan array binding signal (z-score) [38]: -1.02
glycan array binding signal (z-score) [39]: -0.841
glycan array binding signal (z-score) [40]: 0.408
glycan array binding signal (z-score) [41]: -0.166
glycan array binding signal (z-score) [42]: 0.536
glycan array binding signal (z-score) [43]: -0.327
glycan array binding signal (z-score) [44]: -0.679
glycan array binding signal (z-score) [45]: -0.392
glycan array binding signal (z-score) [46]: -0.074
glycan array binding signal (z-score) [47]: -0.419
glycan array binding signal (z-score) [48]: -0.45
glycan array binding signal (z-score) [49]: 0.051
glycan array binding signal (z-score) [50]: -0.257
glycan array binding signal (z-score) [51]: 0.354
glycan array binding signal (z-score) [52]: -0.666
glycan array binding signal (z-score) [53]: -0.057
glycan array binding signal (z-score) [54]: 0.005
glycan array binding signal (z-score) [55]: -1.4
glycan array binding signal (z-score) [56]: 2.38
glycan array binding signal (z-score) [57]: 0.766
glycan array binding signal (z-score) [58]: -0.419
glycan array binding signal (z-score) [59]: 0.076
glycan array binding signal (z-score) [60]: 0.504
glycan array binding signal (z-score) [61]: 0.142
glycan array binding signal (z-score) [62]: 0.508
glycan array binding signal (z-score) [63]: -0.439
glycan array binding signal (z-score) [64]: -1.08
glycan array binding signal (z-score) [65]: 0.729
